# Measurements published in PubChem BioAssay AID2685 (National Center for Advancing Translational Sciences (NCATS), 2010).
# Hit rate of the full screen: of about 320,000 compounds, about 2,100 (0.66%) were called active. The shares of active, inactive and inconclusive entries below differ from those in the screen. The call rests on the fitted dose curve; in most records, active means well fitted inhibition curve with a large enough effect in the signal ratio, with a control signal flat (not every such curve was filed as active); inconclusive means small, poorly fitted or top-dose-only effect, or effect the other way, or a change in a side signal; inactive means flat fitted curve, though single readings scatter; the % refers to the signal ratio. Potencies of inconclusive entries are doubtful fits and often do not repeat.
# Test: qHTS Assay for Lipid Storage Modulators in Drosophila S3 Cells
# Conditions: BODIPY lipid droplet fluorescence, 18-24 h, cells fed with added oleic acid; lipid storage change, negative = inhibition: at 46.1 µM (top of the series) unless noted
# Method in brief: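 Laser-scanning cytometry quantifies lipid droplet accumulation (500–530 nm total intensity; droplet/cell object ratio) in oleic acid-fed (400 uM added) Drosophila S3 cells treated with a concentration series. 20 uM Triacsin C defined 100% inhibition.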
# On the % scale 0 is the no-effect control and ±100 the full control effect; potency means the concentration at half of the fitted maximal effect.
SMILES,Potency,"lipid storage change, negative = inhibition",outcome
COc1ccc(CCNC(=O)CSc2nnc(CNc3ccc(Cl)cc3)o2)cc1OC,"inconclusive: 13 µM [falling, partial curve]",,
Cc1cc(C(=O)N2CCC(C(N)=O)CC2)c(C)o1,,inconclusive: 7.32%,
O=C(CS(=O)(=O)c1ccccc1)Nc1nnc(-c2cccs2)o1,,inactive: -5.63%,
O=C1C2C3C=CC(C3)C2C(=O)N1c1cccc2cccnc12 (stereo unspecified),,inconclusive: -21.5%,
CC1CCN(C(=O)COc2ccc(Nc3ccccc3)cc2)CC1,,inconclusive: -1.62%,
C=CCN1C(=O)c2ccccc2Sc2ccc(C(=O)N3CCN(C)CC3)cc21,,inconclusive: 98.3%,
O=C(Nc1ccc(F)cc1)c1cccc(NC(=O)C2C3CC4OC(=O)C2C4C3)c1 (stereo unspecified),,inconclusive: 0.891%,
CSc1ccc(-c2nc(CSCC(=O)NCCCN3CCCC3=O)c(C)o2)cc1,active: 1.84 µM,,
Cc1ccccc1OCC(=O)OC(C)C(=O)NC1CCCC1 (stereo unspecified),,inconclusive: -42.8%,
NS(=O)(=O)c1cccc(NC(=O)CCCNC(=O)c2ccc(Cl)cc2)c1,"inconclusive: 16.4 µM [activator, partial curve]",,
C[C@@H](NC(=O)[C@@H]1Cc2ccccc2CN1)C(=O)Nc1ccc2c(c1)OCO2,"inconclusive: 5.8 µM [activator, partial curve]",,
CCOC(=O)c1c(OCCO)noc1N,"inconclusive: 32.6 µM [falling, single point]",,
COc1cc(/C=C/C(=O)O)cc(S(=O)(=O)NCCCO)c1OC,"inconclusive: 3.66 µM [falling, single point]",,
Cc1cc(C)n2nc(SCn3nnc4ccccc4c3=O)nc2n1,"inconclusive: 4.11 µM [activator, single point]",,
C=CCOc1ccc(CNn2nnnc2N)cc1,,inconclusive: -31.9%,
CC(=O)c1cccc(NC(=O)COC(=O)Cc2ccc(Cl)cc2)c1,,inconclusive,
O=C1CC(N2CCN(Cc3ccccc3)CC2)C(=O)N1 (stereo unspecified),"inconclusive: 16.4 µM [falling, single point]",,
O=C(Cc1c(F)cccc1Cl)Nc1cccc(S(=O)(=O)NC2=NCCCCC2)c1,,inconclusive: 10.1%,
Cc1cc(C)cc(OCC(=O)OCC(=O)NCc2cccs2)c1,,inactive: -2.88%,
CC(=O)CSc1ncnc2sc3c(c12)CCC3,,inconclusive: 6.35%,
CCOC(=O)C(C)Oc1ccc(OCc2ccccc2)cc1 (stereo unspecified),"inconclusive: 20.6 µM [falling, single point]",,
CC(C)N1CC(C(=O)Nc2ccc(C#N)cc2)CC1=O (stereo unspecified),"inconclusive: 29.1 µM [activator, single point]",,
Cn1c(-c2ccccc2)c[n+]2c1CCCCC2,"inconclusive: 2.91 µM [falling, full curve, poor fit]",,
Cn1c(NCCCO)nc2c(c1=O)C1(CCCCC1)Cc1ccccc1-2,"inconclusive: 13 µM [falling, partial curve, poor fit]",,
COc1ccc(CNS(=O)(=O)c2ccc3c(c2)NC(=O)CS3)cc1,"inconclusive: 29.1 µM [activator, single point]",,
O=C(CSCc1nc2ccccc2[nH]1)Nc1ccc(Oc2ccccc2)cc1,,inconclusive: 31.5%,

SMILES,Potency,"lipid storage change, negative = inhibition",outcome
CCC1(C)N=C(N)Nc2nc3cc(C)c(C)cc3n21 (stereo unspecified),,inconclusive: 0.278%,
COc1ccc(S(=O)(=O)NCc2csc(C)n2)cc1,,inconclusive: -19%,
Cc1cc(C)c2c(N)c(S(=O)(=O)c3ccccc3)sc2n1,,inconclusive: 116%,
CC(C(=O)NC1CCCCC1)N(Cc1ccc(F)cc1)C(=O)c1snc(C(N)=O)c1N (stereo unspecified),,inconclusive: 10.8%,
CC(=O)N1CCN(S(=O)(=O)c2ccc(Cl)cc2F)CC1,,inconclusive: -46%,
O=C(NNC(=O)c1nc(Cl)ccc1Cl)c1ccc(F)cc1,,inconclusive: -8.28%,
CCN(CC)S(=O)(=O)c1ccc(N2CCCC2)c(NC(=O)C2=COCCO2)c1,,inconclusive: 34.3%,
CCCC(=O)N(CCN1CCOCC1)c1nc2ccc(OCC)cc2s1,"inconclusive: 29.1 µM [falling, single point]",,
O=[N+]([O-])c1ccc(N2CCc3ccccc3C2)nc1,,inconclusive: -36.1%,
OC(COc1ccc2c(c1)CCC2)Cn1cnc2ccccc21 (stereo unspecified),,inconclusive: -58.3%,
O=C(c1ccoc1)N1CCCC(Nc2ccc(F)c(F)c2)C1 (stereo unspecified),,inconclusive: -2.72%,
Cc1cc(C(=O)COC(=O)c2ccc(NC(=O)CC#N)cc2)c(C)n1CCc1ccc(F)cc1,,inconclusive: 8.45%,
Cc1nc2ccc(-n3ccc(=O)cc3)cc2s1,,inconclusive: -5.11%,
O=C1CCCN1CC(O)CS(=O)(=O)Cc1ccccc1 (stereo unspecified),,inconclusive: 40.7%,
Nn1c(Cc2cccc3ccccc23)nnc1SCc1ccc(Cl)c(Cl)c1,,inconclusive: 31.8%,
CN1C(=O)/C(=N/OC(=O)c2ccccc2)c2ccccc21,"inconclusive: 4.61 µM [falling, partial curve, poor fit]",,
O=C(Cn1cnc2scc(-c3ccc(F)cc3)c2c1=O)N1CCOCC1,"inconclusive: 0.82 µM [falling, single point]",,
COc1ccc(CCNC(=O)NC23CC4CC(CC(C4)C2)C3)cc1OC,"inconclusive: 18.4 µM [falling, single point]",,
O=C(NCc1ccccc1)c1cc(-c2cccc(O)c2)on1,,inactive: 10.5%,
COc1ccc(CCNC(=O)Cn2c(=O)cnc3ccccc32)cc1,"inconclusive: 0.326 µM [falling, partial curve, poor fit]",,
O=C1C2C3C=CC(C3)C2C(=O)N1c1cccc2ccccc12 (stereo unspecified),,,inactive [at 46.1 µM]
COc1cc(/C=N/NC(=O)c2cccc(S(=O)(=O)N3CCCC3)c2)cc(OC)c1O,,inconclusive: 40.8%,
CCOc1ccc(N=c2scc(-c3ccc(OC)cc3)n2CCO)cc1,,inconclusive: -21.9%,
COc1ccc(OCCNC(=O)c2cccc(Oc3ccc(C(F)(F)F)cc3[N+](=O)[O-])c2)cc1,"inconclusive: 32.6 µM [falling, single point]",,
COC(=O)c1cc(Cl)nc2ccccc12,,inconclusive: 90.8%,

# Quoted from the listing.
# lipid storage change, negative = inhibition with OC(COc1ccc2c(c1)CCC2)Cn1cnc2ccccc21 (stereo unspecified) reads inconclusive: -58.3%
# lipid storage change, negative = inhibition with Cc1cc(C)c2c(N)c(S(=O)(=O)c3ccccc3)sc2n1 reads inconclusive: 116%
